Results on 22 compounds are retold here after patent publication US20190009248A1, “ELEMENT FOR EXTRACTING ORGANIC COMPONENTS” (GERSTEL K.K., priority 2016, published 2019).

Series [1] is described as follows: Extraction of organic components from espresso coffee with methyl tert-butyl ether-swelled PDMS element TWISTER-011333-001-00, acetone back extraction, GC-MS. The following applies: coffee 5 mL; swelled with methyl tert-butyl ether (head: Working Example 11).
Series [2] can be described thus: Extraction of organic components from beer with solvent-swelled PDMS element TWISTER-011333-001-00 (63 μL), acetone back extraction, GC-MS. The following applies: beer 5 mL.
The mark [3] stands for this setting: Working example 8, PDMS 63 μL swelled with dichloromethane.
Setting [4] is: Working example 9, PDMS 63 μL swelled with diisopropyl ether.
Where [5] appears, read: Working example 10, PDMS 63 μL swelled with cyclohexane.

As for `CCC1=C(O)C(=O)CC1` [3-Ethyl-2-hydroxy-2-cyclopenten-1-one], the “relative peak intensity (normalized with Comparative Example 13, no solvent)” value in series [1] was determined as 14.

With `C=Cc1ccc(O)cc1` [4-Vinylphenol], the “relative peak intensity (normalized with Comparative Example 6, no solvent)” value in series [2] (setting [3]) stood at 4.8; in series [2] (setting [4]), 7.8; in series [2] (setting [5]), 1.4. The “relative peak intensity (normalized with Comparative Example 13, no solvent)” value in series [1] worked out at 4.9.

For `CCCCCC1CCC(=O)O1` (stereo not drawn) [γ-Nonalactone], the “relative peak intensity (normalized with Comparative Example 6, no solvent)” value in series [2] (setting [3]) was 1.8; in series [2] (setting [4]) it was 2.2; in series [2] (setting [5]), 1.2.

In the case of `CC(=O)OCc1ccco1` [Furfuryl acetate], the “relative peak intensity (normalized with Comparative Example 13, no solvent)” value in series [1] is listed as 1.7.

In the case of `CC(=O)c1ccc[nH]1` [2-Acetylpyrrole], the “relative peak intensity (normalized with Comparative Example 6, no solvent)” value in series [2] (setting [3]) is 13; in series [2] (setting [4]) it was 9.2; in series [2] (setting [5]) it was 1.5. Further, the “relative peak intensity (normalized with Comparative Example 13, no solvent)” value in series [1] was found to be 9.0.

As for `Oc1ccccc1` [Phenol], the “relative peak intensity (normalized with Comparative Example 13, no solvent)” value in series [1] is recorded as 29.

`CCCCC(=O)O` [Valeric acid]: the results for the “relative peak intensity (normalized with Comparative Example 6, no solvent)” value in series [2] (setting [3]), in series [2] (setting [4]) and in series [2] (setting [5]) were 9.1, 25 and 2.1, respectively. For the same compound, the “relative peak intensity (normalized with Comparative Example 13, no solvent)” value in series [1] is listed as 122.

`Cc1occc(=O)c1O` [Maltol]: the “relative peak intensity (normalized with Comparative Example 13, no solvent)” value in series [1] came to 4.3.

As to `OCc1ccco1` [Furfuryl alcohol], the results for the “relative peak intensity (normalized with Comparative Example 6, no solvent)” value in series [2] (setting [3]), in series [2] (setting [4]) and in series [2] (setting [5]) were 12, 21 and 1.8, respectively. For the same compound, the “relative peak intensity (normalized with Comparative Example 13, no solvent)” value in series [1] came to 14.

Turning to `CCCCCC(=O)O` [Hexanoic acid], the “relative peak intensity (normalized with Comparative Example 6, no solvent)” value in series [2] (setting [3]) turned out to be 5.3; in series [2] (setting [4]), 6.5; in series [2] (setting [5]), 1.9.

For the compound `CCCCCCCC(=O)O` [Octanoic Acid], the “relative peak intensity (normalized with Comparative Example 6, no solvent)” value in series [2] (setting [3]) is recorded as 2.1; in series [2] (setting [4]) it was 3.2; in series [2] (setting [5]), 1.0.

As to `OCCc1ccccc1` [Phenethyl alcohol], the “relative peak intensity (normalized with Comparative Example 6, no solvent)” value in series [2] (setting [3]) is listed as 6.8; in series [2] (setting [4]), 6.8; in series [2] (setting [5]), 1.8.

As to `CCc1cnc(C)cn1` [2-Ethyl-5-methylpyrazine], the “relative peak intensity (normalized with Comparative Example 13, no solvent)” value in series [1] was 1.5.

Regarding `Cc1cnc(C)cn1` [2,5-Dimethylpyrazine], in series [1], the “relative peak intensity (normalized with Comparative Example 13, no solvent)” value was found to be 2.0.

Consider `Cc1ccc(C=O)o1` [5-Methylfurfural], for which, in series [1], the “relative peak intensity (normalized with Comparative Example 13, no solvent)” value was 3.0.

Consider `COc1ccccc1O` [Guaiacol], for which the results for the “relative peak intensity (normalized with Comparative Example 6, no solvent)” value in series [2] (setting [3]), in series [2] (setting [4]) and in series [2] (setting [5]) were 4.6, 9.6 and 8.1, respectively. The “relative peak intensity (normalized with Comparative Example 13, no solvent)” value in series [1] was determined as 4.8.

Consider `CSCCCO` [Methionol], for which the results for the “relative peak intensity (normalized with Comparative Example 6, no solvent)” value in series [2] (setting [3]), in series [2] (setting [4]) and in series [2] (setting [5]) were 16, 17 and 1.7, respectively.

As for `CC1CC(C)C(=O)C1=O` (stereo not drawn) [3,5-dimethyl-1,2-cyclopentanedione], the “relative peak intensity (normalized with Comparative Example 13, no solvent)” value in series [1] was 16.

As to `C=Cc1ccc(OC)c(O)c1` [4-Vinylguaiacol], the “relative peak intensity (normalized with Comparative Example 6, no solvent)” value in series [2] (setting [3]) turned out to be 2.3; in series [2] (setting [4]), 2.6; in series [2] (setting [5]), 1.5. Moreover, the “relative peak intensity (normalized with Comparative Example 13, no solvent)” value in series [1] is on record as 1.7.

With `CCc1ncc(C)nc1C` [2-Ethyl-3,5-dimethylpyrazine], the “relative peak intensity (normalized with Comparative Example 13, no solvent)” value in series [1] is recorded as 1.6.

On to `CC(=O)c1ccco1` [2-Acetylfuran], for which the “relative peak intensity (normalized with Comparative Example 6, no solvent)” value in series [2] (setting [3]) was determined as 10; in series [2] (setting [4]) it was 3.9; in series [2] (setting [5]) it was 1.9.

For `CC(C)C(=O)O` [Isobutyric acid], the entries for the “relative peak intensity (normalized with Comparative Example 6, no solvent)” value in series [2] (setting [3]), in series [2] (setting [4]) and in series [2] (setting [5]) were 6.8, 25 and 2.0, respectively.
